Laboratory results taken from PMC7862700.
Only a part is listed here, and it is no random draw. For some assays here: At the low end of the ranking, values are background and their order means little.

By UniProt entry, the sequences of proteins in these tests, tags left out. Where a name states a change or a piece, a line headed by the entry shows the natural chain unless it says otherwise.
UniProt Q01892: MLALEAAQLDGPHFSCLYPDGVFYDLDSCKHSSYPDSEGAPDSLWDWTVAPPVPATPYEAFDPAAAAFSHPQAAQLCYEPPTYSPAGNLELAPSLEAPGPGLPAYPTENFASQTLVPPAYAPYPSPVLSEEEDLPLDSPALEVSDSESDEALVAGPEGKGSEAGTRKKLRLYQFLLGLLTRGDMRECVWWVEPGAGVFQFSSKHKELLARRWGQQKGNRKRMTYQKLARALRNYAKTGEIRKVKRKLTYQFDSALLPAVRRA
UniProt Q99607: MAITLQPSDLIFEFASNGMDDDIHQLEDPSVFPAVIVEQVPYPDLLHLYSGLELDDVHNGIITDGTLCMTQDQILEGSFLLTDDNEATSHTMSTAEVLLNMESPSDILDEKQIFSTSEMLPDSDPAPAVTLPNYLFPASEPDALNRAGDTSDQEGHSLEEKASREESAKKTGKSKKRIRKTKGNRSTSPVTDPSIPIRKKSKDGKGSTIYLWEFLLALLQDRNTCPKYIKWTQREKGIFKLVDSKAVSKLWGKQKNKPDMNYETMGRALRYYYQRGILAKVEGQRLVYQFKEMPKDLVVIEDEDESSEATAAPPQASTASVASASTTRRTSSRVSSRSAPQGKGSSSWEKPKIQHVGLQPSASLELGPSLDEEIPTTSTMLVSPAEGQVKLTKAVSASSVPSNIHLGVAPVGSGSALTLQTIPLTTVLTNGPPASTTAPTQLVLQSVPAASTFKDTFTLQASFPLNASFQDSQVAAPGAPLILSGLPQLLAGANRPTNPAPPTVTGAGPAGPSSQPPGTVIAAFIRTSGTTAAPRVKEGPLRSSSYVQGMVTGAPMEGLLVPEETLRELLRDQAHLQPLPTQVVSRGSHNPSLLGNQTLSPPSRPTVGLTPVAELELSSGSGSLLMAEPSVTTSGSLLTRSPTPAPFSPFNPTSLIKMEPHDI

Key:
Assay in all cases: DAPPL (digital affinity profiling via proximity ligation, sequencing)
Conditions in all cases: 10 mM Tris-HCl pH 7.5, 50 mM NaCl, 1 mM DTT, 4% glycerol, room temperature, 30 min; GST-TFs on glutathione beads, 16-mer random dsDNA library, 0.1% …; high values mean tight binding; double strand, one strand shown; scale: fold enrichment (6-mer frequency, TF over GST control)
[1] = target: T1, FLI1 (UniProt Q01543)
T1 sequence: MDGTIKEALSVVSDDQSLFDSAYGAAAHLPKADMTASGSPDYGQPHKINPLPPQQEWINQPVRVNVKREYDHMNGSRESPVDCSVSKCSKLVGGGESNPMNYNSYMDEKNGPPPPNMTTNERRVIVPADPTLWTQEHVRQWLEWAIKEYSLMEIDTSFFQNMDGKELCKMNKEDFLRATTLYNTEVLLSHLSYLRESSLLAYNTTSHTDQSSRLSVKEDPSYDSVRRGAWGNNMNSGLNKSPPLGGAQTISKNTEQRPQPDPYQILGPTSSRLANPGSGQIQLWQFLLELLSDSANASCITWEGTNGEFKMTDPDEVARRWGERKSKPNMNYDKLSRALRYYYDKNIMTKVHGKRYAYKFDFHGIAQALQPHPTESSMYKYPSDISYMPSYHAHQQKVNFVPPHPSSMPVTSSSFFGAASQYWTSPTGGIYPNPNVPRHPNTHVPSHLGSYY

[2] = target: T2, EHF (UniProt Q9NZC4)
T2 sequence: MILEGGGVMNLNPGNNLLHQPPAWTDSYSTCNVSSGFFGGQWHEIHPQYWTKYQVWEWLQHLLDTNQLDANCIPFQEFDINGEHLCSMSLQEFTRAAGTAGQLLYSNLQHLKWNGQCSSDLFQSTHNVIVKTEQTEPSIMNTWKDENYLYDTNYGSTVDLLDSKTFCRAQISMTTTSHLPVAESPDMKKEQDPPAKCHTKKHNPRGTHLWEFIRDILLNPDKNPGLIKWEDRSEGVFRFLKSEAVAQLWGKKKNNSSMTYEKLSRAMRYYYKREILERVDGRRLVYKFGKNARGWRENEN

[3] = target: SPIB (UniProt Q01892)
[4] = target: T3, ETV2 (UniProt O00321)
T3 sequence: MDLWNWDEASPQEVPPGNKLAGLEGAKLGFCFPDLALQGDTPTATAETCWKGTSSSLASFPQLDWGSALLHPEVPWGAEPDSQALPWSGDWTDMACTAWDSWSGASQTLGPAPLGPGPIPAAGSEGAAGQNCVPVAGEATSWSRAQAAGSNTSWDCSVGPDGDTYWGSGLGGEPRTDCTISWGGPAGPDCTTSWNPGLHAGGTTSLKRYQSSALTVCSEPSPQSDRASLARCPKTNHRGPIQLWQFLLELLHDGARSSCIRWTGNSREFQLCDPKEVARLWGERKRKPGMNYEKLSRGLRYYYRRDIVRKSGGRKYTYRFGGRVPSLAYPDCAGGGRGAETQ

[5] = target: T4, ETV3L (UniProt Q6ZN32)
T4 sequence: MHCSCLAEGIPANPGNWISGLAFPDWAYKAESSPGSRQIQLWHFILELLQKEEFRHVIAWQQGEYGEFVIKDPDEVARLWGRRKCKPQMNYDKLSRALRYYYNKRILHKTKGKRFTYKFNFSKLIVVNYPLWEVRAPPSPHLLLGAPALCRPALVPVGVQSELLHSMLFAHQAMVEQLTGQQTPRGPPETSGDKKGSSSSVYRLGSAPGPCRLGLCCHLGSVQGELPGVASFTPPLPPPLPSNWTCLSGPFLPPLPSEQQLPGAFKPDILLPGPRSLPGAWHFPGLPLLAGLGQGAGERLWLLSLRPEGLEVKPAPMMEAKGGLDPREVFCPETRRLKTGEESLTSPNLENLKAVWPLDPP

[6] = target: ELF4 (UniProt Q99607)

With GTGCCC the binding signal [1] was 0.928, the binding signal [2] was 0.95 and the binding signal [3] was 0.991. It also gave a binding signal [4] of 0.888 and a binding signal [5] of 1.
CACTCA showed a binding signal [1] of 1.06, a binding signal [4] of 1.27 and a binding signal [5] of 1.11.
CCAAAT showed a binding signal [1] of 1.02, a binding signal [4] of 0.973 and a binding signal [5] of 1.02.
GCCCGC gave a binding signal [1] of 1.09, a binding signal [4] of 1.16 and a binding signal [5] of 1.09.
For AGACTT, the binding signal [1] was 1.09, the binding signal [4] was 0.868 and the binding signal [5] was 0.951.
With AGTGAC the binding signal [1] was 1.07, the binding signal [2] was 1.08 and the binding signal [4] was 0.913.
CCCCGT was tested, and the binding signal [1] was 1.05, the binding signal [3] was 0.998 and the binding signal [4] was 1.1. It also gave a binding signal [5] of 0.992.
Work on ACATTT yielded a binding signal [1] of 1.63, a binding signal [4] of 1.68 and a binding signal [5] of 1.49.
Work on GCAATG yielded a binding signal [1] of 1.05, a binding signal [3] of 0.977 and a binding signal [4] of 1.07. It also gave a binding signal [5] of 0.998.
For TAGGCC, the binding signal [1] was 0.913, the binding signal [2] was 0.953 and the binding signal [3] was 0.919. It also gave a binding signal [4] of 0.993 and a binding signal [5] of 0.84.
CCACCG was tested, and the binding signal [1] was 0.939, the binding signal [4] was 0.981 and the binding signal [5] was 0.874.
Sequence GATTCA has a binding signal [1] of 1.11, a binding signal [2] of 1.18 and a binding signal [4] of 1.08.
AGCAAA was tested, and the binding signal [1] was 0.956, the binding signal [2] was 1.03 and the binding signal [3] was 1.04. The binding signal [4] was 1.17 and the binding signal [5] was 0.988.
GTTTAT was tested, and the binding signal [1] was 1.09, the binding signal [2] was 1.06 and the binding signal [4] was 0.975.
In the case of TAAAGC, the binding signal [1] is reported as 1.03, the binding signal [4] is reported as 0.902 and the binding signal [5] is reported as 0.948.
With ATCTTA the binding signal [1] was 1.15, the binding signal [4] was 1.12 and the binding signal [5] was 1.1.
In the case of GTACTG, the binding signal [1] is reported as 0.997, the binding signal [4] is reported as 0.95 and the binding signal [5] is reported as 0.885.
For ATGCGC, the binding signal [1] was 1.15, the binding signal [2] was 1.17 and the binding signal [4] was 1.1.
In the case of ATCTGG, the binding signal [1] is reported as 1.19, the binding signal [2] is reported as 1.12 and the binding signal [4] is reported as 1.23.
In the case of ACATGC, the binding signal [1] is reported as 1.31, the binding signal [4] is reported as 1.44 and the binding signal [5] is reported as 1.26.
With AAGATG the binding signal [1] was 1.17, the binding signal [4] was 1.13 and the binding signal [5] was 1.12.
In the case of CAGCCC, the binding signal [1] is reported as 0.975, the binding signal [2] is reported as 1.16 and the binding signal [4] is reported as 1.27.
In the case of CGCCCA, the binding signal [1] is reported as 0.987, the binding signal [2] is reported as 0.999 and the binding signal [3] is reported as 0.944. The binding signal [4] was 0.967 and the binding signal [5] was 0.992.
With GTTAAG the binding signal [1] was 1.04, the binding signal [2] was 1.01 and the binding signal [4] was 1.1.
For GACTCC, the binding signal [1] was 1.35, the binding signal [3] was 1.38 and the binding signal [4] was 1.26. The binding signal [5] was 1.27.
With ATACGC the binding signal [1] was 1.09, the binding signal [2] was 1.11 and the binding signal [4] was 0.981.
TAGCAT gave a binding signal [1] of 1.16, a binding signal [4] of 0.936 and a binding signal [5] of 1.14.
CAATGT was tested, and the binding signal [1] was 0.991, the binding signal [4] was 0.997 and the binding signal [5] was 1.03.
ATGGTG gave a binding signal [1] of 1.17, a binding signal [4] of 0.958 and a binding signal [5] of 1.04.
CCAATT showed a binding signal [1] of 1.2, a binding signal [4] of 1.27 and a binding signal [5] of 1.24.
For CTACAA, the binding signal [1] was 1.17 and the binding signal [2] was 1.14.
Sequence TCCCAG has a binding signal [1] of 1.05 and a binding signal [2] of 1.1.
GCAATC was tested, and the binding signal [1] was 0.972 and the binding signal [2] was 0.968.
Sequence GCTTAC has a binding signal [1] of 1.19 and a binding signal [2] of 1.16.
Work on ACTTGC yielded a binding signal [1] of 1.46, a binding signal [3] of 1.35 and a binding signal [5] of 1.48.
In the case of TTGTAT, the binding signal [1] is reported as 1.52 and the binding signal [2] is reported as 1.37.
CATTCA was tested, and the binding signal [1] was 1.17 and the binding signal [2] was 1.05.
For AGCTTA, the binding signal [1] was 1.06 and the binding signal [2] was 1.1.
AATTTC gave a binding signal [1] of 1.65 and a binding signal [2] of 1.77.
In the case of GCCCCG, the binding signal [1] is reported as 0.959, the binding signal [3] is reported as 1.16 and the binding signal [5] is reported as 1.03.
AATCTC showed a binding signal [1] of 1.26 and a binding signal [2] of 1.27.
AATGTA gave a binding signal [1] of 1.19 and a binding signal [2] of 1.22.
With TTGGCT the binding signal [1] was 1.15, the binding signal [3] was 0.996 and the binding signal [5] was 1.13.
GGCCTT was tested, and the binding signal [1] was 1.17 and the binding signal [2] was 1.13.
TCGTCT was tested, and the binding signal [1] was 1.52 and the binding signal [2] was 1.38.
With TAATAC the binding signal [1] was 1.11 and the binding signal [2] was 1.13.
CTGGCT showed a binding signal [1] of 1.33 and a binding signal [2] of 1.26.
In the case of GGAACT, the binding signal [1] is reported as 1.83 and the binding signal [2] is reported as 1.8.
TCTGGC was tested, and the binding signal [1] was 1.36 and the binding signal [2] was 1.22.
ACCTTG was tested, and the binding signal [1] was 1.27 and the binding signal [2] was 1.3.
TTTAGT gave a binding signal [1] of 1.13 and a binding signal [2] of 0.975.
ATTCCA gave a binding signal [1] of 1.17 and a binding signal [2] of 1.13.
For TGTACG, the binding signal [1] was 1.18 and the binding signal [2] was 1.12.
Sequence GTATAC has a binding signal [1] of 1.28 and a binding signal [2] of 1.22.
In the case of TAGCTT, the binding signal [1] is reported as 1.18 and the binding signal [2] is reported as 1.21.
For GGAAAA, the binding signal [1] was 1.16 and the binding signal [2] was 1.38.
For AGCACT, the binding signal [1] was 1.38 and the binding signal [2] was 1.36.
In the case of CCCTGT, the binding signal [1] is reported as 1.18 and the binding signal [2] is reported as 1.09.
In the case of TTCGGC, the binding signal [1] is reported as 1.03 and the binding signal [2] is reported as 0.978.
ATCCTA showed a binding signal [1] of 1.54 and a binding signal [2] of 1.3.
Sequence TTCCAT has a binding signal [1] of 1.38 and a binding signal [2] of 1.28.
GATCCC showed a binding signal [1] of 1.16 and a binding signal [2] of 1.17.
In the case of TACCTA, the binding signal [1] is reported as 1.32 and the binding signal [2] is reported as 1.22.
TTCTAC showed a binding signal [1] of 1.39 and a binding signal [2] of 1.49.
TAAATC gave a binding signal [1] of 1.15 and a binding signal [2] of 1.17.
With GGATAT the binding signal [1] was 1.61 and the binding signal [2] was 1.55.
ATTAAG showed a binding signal [1] of 1.04 and a binding signal [2] of 1.04.
With TCCAAC the binding signal [1] was 1.22 and the binding signal [2] was 1.23.
TCCTGG was tested, and the binding signal [1] was 1.66 and the binding signal [2] was 1.66.
Work on GTAAAT yielded a binding signal [1] of 1.02 and a binding signal [2] of 1.15.
Work on CTTCCC yielded a binding signal [6] of 1.95.
